Data set [1] concerns SIM1 + ARNT2 (SIM1 partner). Put plainly: EMSA.
In data set [2] the test system is NPAS4 + ARNT2 (NPAS4 partner). As to the kind of experiment: EMSA. (Mobility shift assays separate free from complexed probe on a gel.)

The exact form of at least one protein or probe is not confirmed. For part of these data: A weaker result is weaker than the reference pair of the same experiment. At least one verdict rests on a figure or table, not on a statement of the authors.

As for “AATGGGTACGTGCCAAATTGAA (double strand) [H2RE]”, the binding result in data set [1] is listed as “binds more weakly”. Take “AGGCTGCGTACGTGCGGGTCGT (double strand) [HRE (C/C)]”: the binding result in data set [1] is recorded as “binds”. Consider “TGATTCTGGTAATTCGTGCACTAGAGTGTC (double strand) [BDNF IV NPAS4 response element (C/C)]”, for which the binding result in data set [2] is reported as “binds”.

For the origin of these results see publication doi:10.1101/2022.02.01.475276.
